Measured values published in publication PMC5014548.

Sequences of proteins named here, by UniProt entry; tags and fusion partners are left off. A change or cut given only in a name is not applied to a line headed by its entry.
UniProt P25491, whole entry, looked up, stated change not applied: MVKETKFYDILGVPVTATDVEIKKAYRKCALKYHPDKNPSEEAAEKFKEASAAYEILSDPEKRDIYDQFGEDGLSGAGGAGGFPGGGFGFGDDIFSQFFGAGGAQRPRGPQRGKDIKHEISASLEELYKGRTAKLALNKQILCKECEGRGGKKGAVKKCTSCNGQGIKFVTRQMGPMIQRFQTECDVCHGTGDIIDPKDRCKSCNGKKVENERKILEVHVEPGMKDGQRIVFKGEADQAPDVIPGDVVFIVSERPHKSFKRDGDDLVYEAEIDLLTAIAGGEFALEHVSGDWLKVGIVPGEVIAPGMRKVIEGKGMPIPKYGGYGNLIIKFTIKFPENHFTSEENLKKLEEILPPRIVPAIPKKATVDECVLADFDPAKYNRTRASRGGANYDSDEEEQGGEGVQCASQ

Target: Ydj1p (SASQ), non-prenylatable Ydj1p mutant (S. cerevisiae) (UniProt P25491)
Test: co-IP

In the case of “PrD-GFP, Gln/Asn-rich prion domain of Rnq1p fused to GFP (from UniProt P25367) (domain or fragment)”, the binding was “no binding”.

Results are given in words; binding and its absence hold for the method and conditions named. Binding seen in cells or lysates may run through a third protein.
